Here are results for 1 sequence from article PMC10286459, “The development of an anti-cancer peptide M1-21 targeting transcription factor FOXM1” (Cell & Bioscience, 2023).

In this data set the test system is recombinant FOXM1 protein (EMSA). In words: EMSA. Particulars: 20 mM Tris-Cl, 50 mM KCl, 0.5 mM EDTA, 0.2 mM DTT, 10% glycerol, pH 7.6, 30 min on ice, 4% native PAGE in 0.5x TBE, label: FAM on forward strand (printed as FAM-TTTG..., 5'). (In general: A gel shift assay detects complexes by their altered migration in electrophoresis.)

Construct, isoform or probe ends are uncertain for at least one entry.

Take “TTTGTTTATTTGTTTGTTTATTTG (double strand) [FAM dsDNA FOXM1 probe]”: the binding result (2 uM protein, 50 nM probe, specificity shown with 100x unlabeled probe (5 uM)) is “binds”; the binding result (plus M1-21 peptide 0.5, 1 and 2 uM (does not disturb DNA binding)) was “binds”.
